Measured values as given in patent publication US20220025050A1 (OSE IMMUNOTHERAPEUTICS, published 2022).
Results are given in words; binding and its absence hold for the method and conditions named. Some binding calls cover weakened binding; strength is not graded here.

Protein sequences, listed by entry. Tags and fused reporters are not part of them. Lines headed by an entry give the natural chain unless they say otherwise; changes in a name come on top. Residues count along the entry.
UniProt Q15116, residues 25-167: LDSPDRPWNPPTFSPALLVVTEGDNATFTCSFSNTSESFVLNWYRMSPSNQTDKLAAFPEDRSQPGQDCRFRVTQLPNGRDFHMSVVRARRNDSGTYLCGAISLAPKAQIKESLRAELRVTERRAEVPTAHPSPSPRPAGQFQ
UniProt P78324: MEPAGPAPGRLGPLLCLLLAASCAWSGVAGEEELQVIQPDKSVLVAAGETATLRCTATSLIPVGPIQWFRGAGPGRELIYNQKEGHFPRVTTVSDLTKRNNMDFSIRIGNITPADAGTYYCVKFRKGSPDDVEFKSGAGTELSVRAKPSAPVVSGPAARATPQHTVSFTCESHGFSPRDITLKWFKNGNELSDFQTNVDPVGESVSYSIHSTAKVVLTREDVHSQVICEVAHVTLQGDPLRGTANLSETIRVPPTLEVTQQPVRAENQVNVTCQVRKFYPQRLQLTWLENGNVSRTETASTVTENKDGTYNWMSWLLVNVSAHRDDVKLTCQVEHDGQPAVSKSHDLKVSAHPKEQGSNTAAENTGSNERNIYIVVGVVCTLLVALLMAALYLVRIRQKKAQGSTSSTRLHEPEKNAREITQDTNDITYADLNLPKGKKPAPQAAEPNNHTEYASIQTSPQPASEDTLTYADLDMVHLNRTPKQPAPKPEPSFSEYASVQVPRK

Target: recombinant hPD1 (Sino Biologicals, reference 10377-H08H) (human) (UniProt Q15116)
Assay: PD-1 binding ELISA (FIG. 5, Table 2)

- binding: binds
Substance: Chimeric anti-PD1 fused on its heavy chain to Type I-protein C (SIRPa) (from UniProt P78324 31-373)
